The results in this text go back to article PMC8380248.

In this test the target is Sp1 transcription factor (human (endogenous in SW480 and LOVO)), P08047. Briefly: co-IP; lysates of CRC cells (IP lysis buffer) incubated overnight at 4 °C with SP1 or β-catenin antibody, IgG as control; beads; western blot; control cells (circ_0026628 not silenced). The conditions noted are these: remark: other sources report otherwise.

Results are given in words; binding and its absence hold for the method and conditions named. Binding seen in cells or lysates may run through a third protein. Some binding calls cover weakened binding; strength is not graded here.

B1: β-catenin, P35222 1-781 (protein)
chain: MATQADLMELDMAMEPDRKAAVSHWQQQSYLDSGIHSGATTTAPSLSGKGNPEEEDVDTSQVLYEWEQGFSQSFTQEQVADIDGQYAMTRAQRVRAAMFPETLDEGMQIPSTQFDAAHPTNVQRLAEPSQMLKHAVVNLINYQDDAELATRAIPELTKLLNDEDQVVVNKAAVMVHQLSKKEASRHAIMRSPQMVSAIVRTMQNTNDVETARCTAGTLHNLSHHREGLLAIFKSGGIPALVKMLGSPVDSVLFYAITTLHNLLLHQEGAKMAVRLAGGLQKMVALLNKTNVKFLAITTDCLQILAYGNQESKLIILASGGPQALVNIMRTYTYEKLLWTTSRVLKVLSVCSSNKPAIVEAGGMQALGLHLTDPSQRLVQNCLWTLRNLSDAATKQEGMEGLLGTLVQLLGSDDINVVTCAAGILSNLTCNNYKNKMMVCQVGGIEALVRTVLRAGDREDITEPAICALRHLTSRHQEAEMAQNAVRLHYGLPVVVKLLHPPSHWPLIKATVGLIRNLALCPANHAPLREQGAIPRLVQLLVRAHQDTQRRTSMGGTQQQFVEGVRMEEIVEGCTGALHILARDVHNRIVIRGLNTIPLFVQLLYSPIENIQRVAAGVLCELAQDKEAAEAIEAEGATAPLTELLHSRNEGVATYAAAVLFRMSEDKPQDYKKRLSVELTSSLFRTEPMAWNETADLGLDIGAQGEPLGYRQDDPSYRSFHSGGYGQDALGMDPMMEHEMGGHHPGADYPVDGLPDLGHAQDLMDGLPPGDSNQLAWFDTDL
For the molecule B1, the binding entry is on record as “binds”.
